Reference: PubChem BioAssay AID248 (DTP/NCI, 2004)
The list is a part of this screen's results and no random one: it gathers tests that were run many times, whatever their T/C, doses with no T/C, and many T/C values between a quarter and a half above the control. Further doses and runs are listed elsewhere. T/C gives the treated animals as a percentage of the vehicle group. For survival time, this PubChem deposit counts one and a half times the control or more as active, and values a quarter to a half above the control carry no call in these data; other NCI protocols may use other cut-offs. Schedules are NCI's codes, read here as Q, the interval in days (D) or hours (H), X, the number of doses. Some T/C values are followed by the survivors on the day toxicity was checked, most often the fifth; where none is given, no animal had died by that day. Some entries were tested several times; the values are given in rising order. Marks such as (2×) stand for listed records that agree. Some schedule codes hold Z or #, which are not explained here.

System: L1210 leukemia ip in BDF1 mice, survival T/C
Assay: NCI In Vivo Anticancer Drug Screen. Data for tumor model L1210 Leukemia (intraperitoneal) in B6D2F1 (BDF1) mice
Conditions: T/C endpoint: mean survival time, higher T/C = longer survival

## S=c1nc[nH]c2nc[nH]c12
dose: 0.6 mg/kg/injection, schedule: Q#A X Z (ip), vehicle: other
  T/C: 140 % of control
dose: 1.25 mg/kg/injection, schedule: Q#A X Z (ip), vehicle: other
  T/C: 148 % of control
dose: 2.5 mg/kg/injection, schedule: Q01DX Z (ip), vehicle: other
  T/C: 130 % of control
dose: 3.25 mg/kg/injection, schedule: Q01DX015 (ip), vehicle: other
  T/C: 144 % of control
dose: 3.5 mg/kg/injection, schedule: Q01DX Z (ip), vehicle: carboxymethylcellulose (CMC)
  T/C: 110, 111, 115, 123, 127, 128, 132, 147 % of control
dose: 4.4 mg/kg/injection, schedule: Q01DX001 (ip), vehicle: other
  T/C: 137 % of control
dose: 4.4 mg/kg/injection, schedule: Q07DX Z (ip), vehicle: other
  T/C: 131 % of control
dose: 5.0 mg/kg/injection, schedule: Q01DX010 (ip), vehicle: alkali diluted with saline
  T/C: 96, 97, 100, 101 % of control
dose: 5.0 mg/kg/injection, schedule: Q01DX Z (ip), vehicle: carboxymethylcellulose (CMC)
  T/C: 134 % of control
dose: 5.0 mg/kg/injection, schedule: Q01DX Z (ip), vehicle: other
  T/C: 144 % of control
dose: 5.0 mg/kg/injection, schedule: Q#A X Z (ip), vehicle: other
  T/C: 145 and 147 % of control
dose: 6.25 mg/kg/injection, schedule: Q01DX015 (ip), vehicle: alkali diluted with saline, evaluated on day 5
  T/C: 106 and 116 % of control
dose: 6.25 mg/kg/injection, schedule: Q01DX015 (ip), vehicle: alkali diluted with saline, evaluated on day 30
  T/C: 106 and 116 % of control
dose: 7.0 mg/kg/injection, schedule: Q01DX Z (ip), vehicle: carboxymethylcellulose (CMC)
  T/C: 134 (2×), 135 (2×), 140, 141, 144, 147, 151 % of control
dose: 7.0 mg/kg/injection, schedule: Q01DX Z (oral), vehicle: carboxymethylcellulose (CMC)
  T/C: 106, 107, 108, 110, 131 % of control
dose: 7.5 mg/kg/injection, schedule: Q## X027 (ip), vehicle: saline
  T/C: 139 % of control
dose: 8.0 mg/kg/injection, schedule: Q01DX015 (ip), vehicle: carboxymethylcellulose (CMC)
  T/C: 136 % of control
dose: 8.0 mg/kg/injection, schedule: Q12HX012 (ip), vehicle: alkali diluted with saline
  T/C: 127 % of control
dose: 8.56 mg/kg/injection, schedule: Q01DX Z (ip), vehicle: carboxymethylcellulose (CMC)
  T/C: 138 % of control
dose: 8.8 mg/kg/injection, schedule: Q07DX Z (ip), vehicle: other
  T/C: 146 % of control
dose: 9.0 mg/kg/injection, schedule: Q01DX015 (ip), vehicle: alkali diluted with saline
  T/C: 127 % of control
dose: 10.0 mg/kg/injection, schedule: Q01DX009 (ip), vehicle: saline with Tween-80
  T/C: 132 and 136 % of control
dose: 10.0 mg/kg/injection, schedule: Q01DX010 (ip), vehicle: alkali diluted with saline
  T/C: 94, 102, 105, 108 % of control
dose: 10.0 mg/kg/injection, schedule: Q01DX Z (ip), vehicle: alkali diluted with saline
  T/C: 127 % of control
dose: 10.0 mg/kg/injection, schedule: Q01DX Z (ip), vehicle: carboxymethylcellulose (CMC)
  T/C: 144 % of control
dose: 10.0 mg/kg/injection, schedule: Q01DX Z (ip), vehicle: other
  T/C: 136 % of control
dose: 10.0 mg/kg/injection, schedule: Q## X032 (ip), vehicle: alkali diluted with saline
  T/C: 126 % of control
dose: 10.0 mg/kg/injection, schedule: Q#A X Z (ip), vehicle: other
  T/C: 149 % of control
dose: 12.5 mg/kg/injection, schedule: Q01DX015 (ip), vehicle: alkali diluted with saline, evaluated on day 5
  T/C: 106 and 118 % of control
dose: 12.5 mg/kg/injection, schedule: Q01DX015 (ip), vehicle: alkali diluted with saline, evaluated on day 30
  T/C: 106 and 118 % of control
dose: 12.5 mg/kg/injection, schedule: Q01DX Z (ip), vehicle: other
  T/C: 125 % of control
dose: 13.0 mg/kg/injection, schedule: Q02DX010 (ip), vehicle: carboxymethylcellulose (CMC)
  T/C: 140 % of control
dose: 13.0 mg/kg/injection, schedule: Q06HX012 (ip), vehicle: alkali diluted with saline
  T/C: 142 % of control
dose: 13.0 mg/kg/injection, schedule: Q12HX012 (ip), vehicle: alkali diluted with saline
  T/C: 132 % of control
dose: 14.0 mg/kg/injection, schedule: Q01DX Z (ip), vehicle: alkali diluted with saline
  T/C: 126 % of control
dose: 14.0 mg/kg/injection, schedule: Q01DX Z (ip), vehicle: carboxymethylcellulose (CMC)
  T/C: 137, 147, 153, 156 (2×), 163, 172, 178, 190 % of control [5 of 6 alive]
dose: 14.0 mg/kg/injection, schedule: Q01DX Z (oral), vehicle: alkali diluted with saline
  T/C: 134 % of control
dose: 14.0 mg/kg/injection, schedule: Q01DX Z (oral), vehicle: carboxymethylcellulose (CMC)
  T/C: 110, 120 (2×), 131, 138 % of control
dose: 14.0 mg/kg/injection, schedule: Q02DX010 (ip), vehicle: carboxymethylcellulose (CMC)
  T/C: 148 % of control
dose: 14.5 mg/kg/injection, schedule: Q02DX010 (ip), vehicle: carboxymethylcellulose (CMC)
  T/C: 147, 154, 160, 164 % of control
dose: 15.0 mg/kg/injection, schedule: Q01DX001 (ip), vehicle: saline
  T/C: 126 (3×), 129, 132, 133 (2×), 145 % of control
dose: 15.0 mg/kg/injection, schedule: Q01DX005 (ip), vehicle: saline
  T/C: 143 and 148 % of control
dose: 15.0 mg/kg/injection, schedule: Q01DX009 (ip), vehicle: alkali diluted with saline, evaluated on day 30
  T/C: 112, 119, 123, 124 % of control
dose: 15.0 mg/kg/injection, schedule: Q01DX009 (ip), vehicle: alkali diluted with saline, evaluated on day 60
  T/C: 132 % of control
dose: 15.0 mg/kg/injection, schedule: Q01DX009 (ip), vehicle: other
  T/C: 140 and 142 % of control
dose: 15.0 mg/kg/injection, schedule: Q01DX015 (ip), vehicle: saline
  T/C: 134 % of control
dose: 15.0 mg/kg/injection, schedule: Q02DX010 (ip), vehicle: carboxymethylcellulose (CMC)
  T/C: 139, 156, 197, 203 % of control
dose: 15.0 mg/kg/injection, schedule: Q## X027 (ip), vehicle: saline
  T/C: 136 % of control
dose: 16.0 mg/kg/injection, schedule: Q01DX015 (ip), vehicle: carboxymethylcellulose (CMC)
  T/C: 149 % of control
dose: 16.0 mg/kg/injection, schedule: Q## X032 (ip), vehicle: alkali diluted with saline
  T/C: 130 % of control
dose: 16.2 mg/kg/injection, schedule: Q02DX010 (ip), vehicle: carboxymethylcellulose (CMC)
  T/C: 145 % of control
dose: 16.34 mg/kg/injection, schedule: Q02DX010 (ip), vehicle: carboxymethylcellulose (CMC)
  T/C: 137 % of control
dose: 18.0 mg/kg/injection, schedule: Q01DX009 (ip), vehicle: alkali diluted with saline
  T/C: 134 % of control
dose: 18.0 mg/kg/injection, schedule: Q## X009 (ip), vehicle: alkali diluted with saline
  T/C: 134 % of control
dose: 20.0 mg/kg/injection, schedule: Q01DX005 (ip), vehicle: other
  T/C: 103, 110, 113, 114, 114 [5 of 6 alive], 116 (2×), 121 (2×), 122 (2×), 123, 134 % of control [5 of 6 alive]
dose: 20.0 mg/kg/injection, schedule: Q01DX010 (ip), vehicle: alkali diluted with saline
  T/C: 98, 101, 108 % of control (2×)
dose: 20.0 mg/kg/injection, schedule: Q01DX Z (ip), vehicle: other
  T/C: 148 % of control
dose: 20.0 mg/kg/injection, schedule: Q01DX Z (oral), vehicle: other
  T/C: 132 % of control
dose: 20.0 mg/kg/injection, schedule: Q01DX Z (sc), vehicle: other
  T/C: 136 % of control
dose: 21.9 mg/kg/injection, schedule: Q02DX010 (ip), vehicle: carboxymethylcellulose (CMC)
  T/C: 150, 154, 161 (2×), 179 % of control
dose: 22.0 mg/kg/injection, schedule: Q02DX010 (ip), vehicle: carboxymethylcellulose (CMC)
  T/C: 139, 143, 158 (2×), 160, 163, 165, 184, 185, 186 % of control
dose: 22.0 mg/kg/injection, schedule: Q02DX010 (ip), vehicle: other
  T/C: 132, 136, 161, 176 % of control
dose: 25.0 mg/kg/injection, schedule: Q01DX009 (ip), vehicle: saline
  T/C: 146 % of control
dose: 25.0 mg/kg/injection, schedule: Q01DX015 (ip), vehicle: alkali diluted with saline, evaluated on day 5
  T/C: 116 and 122 % of control
dose: 25.0 mg/kg/injection, schedule: Q01DX015 (ip), vehicle: alkali diluted with saline, evaluated on day 30
  T/C: 116 and 122 % of control
dose: 25.0 mg/kg/injection, schedule: Q01DX Z (ip), vehicle: other
  T/C: 137 % of control
dose: 25.46 mg/kg/injection, schedule: Q02DX010 (ip), vehicle: carboxymethylcellulose (CMC)
  T/C: 145 % of control
dose: 26.0 mg/kg/injection, schedule: Q01DX015 (ip), vehicle: alkali diluted with saline, evaluated on day 5
  T/C: 115, 116, 117, 120 (2×), 121, 122, 127, 134, 136 % of control
dose: 26.0 mg/kg/injection, schedule: Q01DX015 (ip), vehicle: alkali diluted with saline, evaluated on day 35
  T/C: 136 % of control
dose: 26.0 mg/kg/injection, schedule: Q01DX015 (ip), vehicle: alkali diluted with saline, evaluated on day 45
  T/C: 115, 117, 120, 121, 127 % of control
dose: 26.0 mg/kg/injection, schedule: Q## X032 (ip), vehicle: alkali diluted with saline
  T/C: 145 % of control
dose: 27.0 mg/kg/injection, schedule: Q01DX009 (ip), vehicle: alkali diluted with saline
  T/C: 142 % of control
dose: 27.0 mg/kg/injection, schedule: Q01DX015 (ip), vehicle: alkali diluted with saline
  T/C: 132 % of control
